No constants are given. Whether binding was seen depends on the method and setting. Binding seen in cells or lysates may run through a third protein. Sequences can lack the tags named with a protein.

Experimental findings from article PMC10646014 are described below.

This test deals with SETD5 deletion mutant N (N-terminal part), FLAG-tagged (human). Put plainly: co-IP; 293 T cells co-transfected with 3× FLAG-tagged SETD5 (WT or deletion mutants N, Mid, C) and MYC-OGT; 100 nM OGA inhibitor (Thiamet-G) for 24 h in Fig. 3A; immunoprecipitated by FLAG-affinity gel, western blot. (In general: Immunoblotting shows a protein as a band on a membrane.)

B1: MYC-tagged OGT (O-GlcNAc transferase) in 293 T cells (enzyme, UniProt O15294 1-1046)
chain: MASSVGNVADSTEPTKRMLSFQGLAELAHREYQAGDFEAAERHCMQLWRQEPDNTGVLLLLSSIHFQCRRLDRSAHFSTLAIKQNPLLAEAYSNLGNVYKERGQLQEAIEHYRHALRLKPDFIDGYINLAAALVAAGDMEGAVQAYVSALQYNPDLYCVRSDLGNLLKALGRLEEAKACYLKAIETQPNFAVAWSNLGCVFNAQGEIWLAIHHFEKAVTLDPNFLDAYINLGNVLKEARIFDRAVAAYLRALSLSPNHAVVHGNLACVYYEQGLIDLAIDTYRRAIELQPHFPDAYCNLANALKEKGSVAEAEDCYNTALRLCPTHADSLNNLANIKREQGNIEEAVRLYRKALEVFPEFAAAHSNLASVLQQQGKLQEALMHYKEAIRISPTFADAYSNMGNTLKEMQDVQGALQCYTRAIQINPAFADAHSNLASIHKDSGNIPEAIASYRTALKLKPDFPDAYCNLAHCLQIVCDWTDYDERMKKLVSIVADQLEKNRLPSVHPHHSMLYPLSHGFRKAIAERHGNLCLDKINVLHKPPYEHPKDLKLSDGRLRVGYVSSDFGNHPTSHLMQSIPGMHNPDKFEVFCYALSPDDGTNFRVKVMAEANHFIDLSQIPCNGKAADRIHQDGIHILVNMNGYTKGARNELFALRPAPIQAMWLGYPGTSGALFMDYIITDQETSPAEVAEQYSEKLAYMPHTFFIGDHANMFPHLKKKAVIDFKSNGHIYDNRIVLNGIDLKAFLDSLPDVKIVKMKCPDGGDNADSSNTALNMPVIPMNTIAEAVIEMINRGQIQITINGFSISNGLATTQINNKAATGEEVPRTIIVTTRSQYGLPEDAIVYCNFNQLYKIDPSTLQMWANILKRVPNSVLWLLRFPAVGEPNIQQYAQNMGLPQNRIIFSPVAPKEEHVRRGQLADVCLDTPLCNGHTTGMDVLWAGTPMVTMPGETLASRVAASQLTCLGCLELIAKNRQEYEDIAVKLGTDLEYLKKVRGKVWKQRISSPLFNTKQYTMELERLYLQMWEHYAAGNKPDHMIKPVEVTESA
Turning to B1, the binding result is given as “no binding”.
